One molecule from publication PMC10695388 can be followed below.

Results are given in words; binding and its absence hold for the method and conditions named. Binding seen in cells or lysates may run through a third protein. Some results given as binding are weak or reduced against the parent protein; the word gives no strength.

The target in this test is T1, Enp1_WKK (W224V, K228E, K231E) (S. cerevisiae) (UniProt P38333).
T1 sequence: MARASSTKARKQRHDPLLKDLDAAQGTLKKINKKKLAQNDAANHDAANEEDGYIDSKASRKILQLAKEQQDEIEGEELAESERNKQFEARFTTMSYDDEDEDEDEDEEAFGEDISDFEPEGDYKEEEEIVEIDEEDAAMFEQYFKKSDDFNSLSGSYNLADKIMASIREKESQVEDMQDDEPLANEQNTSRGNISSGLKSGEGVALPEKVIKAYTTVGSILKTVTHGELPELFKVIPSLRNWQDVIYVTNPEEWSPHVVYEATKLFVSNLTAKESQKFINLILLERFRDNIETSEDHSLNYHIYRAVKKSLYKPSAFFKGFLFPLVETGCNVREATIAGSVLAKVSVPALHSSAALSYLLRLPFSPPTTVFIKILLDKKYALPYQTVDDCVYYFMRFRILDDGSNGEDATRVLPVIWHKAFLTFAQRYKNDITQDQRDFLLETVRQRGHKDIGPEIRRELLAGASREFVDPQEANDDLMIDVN
Put plainly: co-sedimentation; 10-50% sucrose gradient of clarified yeast lysates from cells expressing wt Enp1 or Enp1_WKK; fractions probed by Western blot.

B1: Ltv1 (wild type) (protein, UniProt P34078 1-463)
chain: MSKKFSSKNSQRYVVVHRPHDDPSFYDTDASAHVLVPVSNPNKTSPEADLRKKDVSSTKPKGRRAHVGEAALYGINFDDSEYDYTQHLKPIGLDPENSIFIASKGNEQKVEKKNIEDLFIEPKYRRDEIEKDDALPVFQRGMAKPEYLLHQQDTTDEIRGFKPDMNPALREVLEALEDEAYVVNDDVVVEDISKKTQLQGDNYGEEEKEDDIFAQLLGSGEAKDEDEFEDEFDEWDIDNVENFEDENYVKEMAQFDNIENLEDLENIDYQADVRRFQKDNSILEKHNSDDEFSNAGLDSVNPSEEEDVLGELPSIQDKSKTGKKKRKSRQKKGAMSDVSGFSMSSSAIARTETMTVLDDQYDQIINGYENYEEELEEDEEQNYQPFDMSAERSDFESMLDDFLDNYELESGGRKLAKKDKEIERLKEAADEVSKGKLSQRRNRERQEKKKLEKVTNTLSSLKF
With B1, the binding result is recorded as “binds weakly”.
